# Test results reported in the supplement of paper PMC4604168 (melanoma cell lines).
# The other results are listed elsewhere or left out. Single values are uncertain, as repeats are few or missing.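 The apoptosis fraction was the count of cleaved-PARP antibody-stained nuclei relative to all DNA-stained nuclei, imaged in 1,536-well plates. Screening doses were set so most cells survived, and baseline and induced cleaved-PARP levels vary greatly across cell lines.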
# What was measured:
# Assay in all cases: cleaved PARP positive nuclei fraction relative to DMSO control; melanoma cells; higher = more apoptosis
# Conditions in all cases: library dose: low library concentration; 72 h
# [1] = system: CBRC034 (line from a melanoma biopsy)
# [2] = system: COLO792
# [3] = system: COLO800
# [4] = system: COLO829
# [5] = system: G361
# [6] = system: IPC-298
# [7] = system: IST-MEL1
# [8] = system: LB2518-MEL
# [9] = system: LOXIMVI
# [10] = system: MEL-HO
Structure (SMILES),cleaved PARP positive nuclei fraction [1],cleaved PARP positive nuclei fraction [2],cleaved PARP positive nuclei fraction [3],cleaved PARP positive nuclei fraction [4],cleaved PARP positive nuclei fraction [5],cleaved PARP positive nuclei fraction [6],cleaved PARP positive nuclei fraction [7],cleaved PARP positive nuclei fraction [8],cleaved PARP positive nuclei fraction [9],cleaved PARP positive nuclei fraction [10]
"CCN(CC)CCNC(=O)c1c(C)[nH]c(/C=C2\C(=O)Nc3ccc(F)cc32)c1C [sunitinib] + C#Cc1cccc(Nc2ncnc3cc(OCCOC)c(OCCOC)cc23)c1 [erlotinib] (first compound 0.4 µM, partner dose 0.8 µM)",96.4%,166%,63.7%,84.2%,84.3%,555%,58.4%,91.4%,33%,102%
"Cn1sc(=O)n(Cc2ccccc2)c1=O + C[C@@H](Oc1cc(-c2cnn(C3CCNCC3)c2)cnc1N)c1c(Cl)ccc(F)c1Cl [Crizotinib] (first compound 0.4 µM, partner dose 0.2 µM)",70.8%,143%,107%,112%,97.2%,126%,160%,237%,210%,157%
"CC1(C)CCC(c2ccc(Cl)cc2)=C(CN2CCN(c3ccc(C(=O)NS(=O)(=O)c4ccc(N[C@H](CCN5CCOCC5)CSc5ccccc5)c(S(=O)(=O)C(F)(F)F)c4)cc3)CC2)C1 + NC1(c2ccc(-c3nc4ccn5c(=O)[nH]nc5c4cc3-c3ccccc3)cc2)CCC1 [MK2206] (first compound 0.4 µM, partner dose 0.4 µM)",74.1%,566%,72.1%,115%,220%,131%,158%,231%,958%,90.4%
"CCN(CC)CCNC(=O)c1c(C)[nH]c(/C=C2\C(=O)Nc3ccc(F)cc32)c1C [sunitinib] + Cn1c(Nc2ccc(C(F)(F)F)cc2)nc2cc(Oc3ccnc(-c4ncc(C(F)(F)F)[nH]4)c3)ccc21 [CHIR265] (first compound 0.4 µM, partner dose 0.08 µM)",112%,169%,96.9%,105%,133%,133%,154%,147%,41.4%,89.9%
"CC(=O)O[C@@]12CO[C@@H]1C[C@H](O)[C@@]1(C)C(=O)[C@H](O)C3=C(C)[C@@H](OC(=O)[C@H](O)[C@@H](NC(=O)OC(C)(C)C)c4ccccc4)C[C@@](O)([C@@H](OC(=O)c4ccccc4)[C@H]21)C3(C)C [Docetaxel] + CN(c1ncccc1CNc1nc(Nc2ccc3c(c2)CC(=O)N3)ncc1C(F)(F)F)S(C)(=O)=O [PF562271] (first compound 0.0001 µM, partner dose 0.08 µM)",84.1%,549%,530%,412%,1020%,198%,108%,72.8%,185%,50.6%
"CCCCCCCCc1ccc(CCC(N)(CO)CO)cc1 [fingolimod] + NC1(c2ccc(-c3nc4ccn5c(=O)[nH]nc5c4cc3-c3ccccc3)cc2)CCC1 [MK2206] (first compound 2 µM, partner dose 0.4 µM)",78.6%,118%,156%,60.5%,97.1%,186%,68.3%,122%,110%,140%
"C[C@@H](N)c1ccc(C(=O)Nc2ccnc3[nH]ccc23)cc1 + C=C(c1ccc(C(=O)O)cc1)c1cc2c(cc1C)C(C)(C)CCC2(C)C [Bexarotene] (first compound 0.4 µM, partner dose 2 µM)",97.2%,193%,66.1%,90.2%,184%,46.1%,64.4%,300%,15.1%,89.5%
"C[C@@H](N)c1ccc(C(=O)Nc2ccnc3[nH]ccc23)cc1 + CS(=O)(=O)CCNCc1ccc(-c2ccc3ncnc(Nc4ccc(OCc5cccc(F)c5)c(Cl)c4)c3c2)o1 [lapatinib] (first compound 0.4 µM, partner dose 0.8 µM)",145%,148%,65.6%,135%,150%,343%,59.2%,96.5%,78.7%,225%
"CC1(C)CCC(c2ccc(Cl)cc2)=C(CN2CCN(c3ccc(C(=O)NS(=O)(=O)c4ccc(N[C@H](CCN5CCOCC5)CSc5ccccc5)c(S(=O)(=O)C(F)(F)F)c4)cc3)CC2)C1 + Cn1c(Nc2ccc(C(F)(F)F)cc2)nc2cc(Oc3ccnc(-c4ncc(C(F)(F)F)[nH]4)c3)ccc21 [CHIR265] (first compound 0.4 µM, partner dose 0.08 µM)",154%,2510%,173%,103%,515%,96.4%,81.8%,2970%,804%,166%
"CCCCCCCCc1ccc(CCC(N)(CO)CO)cc1 [fingolimod] + COc1ccc(Cl)c(Nc2nc3ccccc3nc2NS(=O)(=O)c2cccc(NC(=O)C(C)(C)N)c2)c1 [XL147] (first compound 2 µM, partner dose 0.8 µM)",76.8%,101%,69.1%,116%,154%,63.4%,48.3%,226%,98.3%,116%
"CC1(C)CCC(c2ccc(Cl)cc2)=C(CN2CCN(c3ccc(C(=O)NS(=O)(=O)c4ccc(N[C@H](CCN5CCOCC5)CSc5ccccc5)c(S(=O)(=O)C(F)(F)F)c4)cc3)CC2)C1 + O=C(O)[C@@H]1[O][Sb](=[O])([O][Sb]2(=[O])[O][C@H]([C@H](O)CO)[C@H](O)[C@H](C(=O)O)[O]2)[O][C@H]([C@H](O)CO)[C@@H]1O [stibogluconate] (first compound 0.4 µM, partner dose 2 µM)",335%,314%,37%,87.8%,162%,132%,83.5%,86.6%,414%,151%
"C[C@@H](N)c1ccc(C(=O)Nc2ccnc3[nH]ccc23)cc1 + C[C@]1(c2nc3c(C(N)=O)cccc3[nH]2)CCCN1 [Veliparib] (first compound 0.4 µM, partner dose 1.4 µM)",47.7%,219%,119%,148%,154%,259%,170%,135%,469%,179%
"Cn1sc(=O)n(Cc2ccccc2)c1=O + CC(=O)c1c(C)c2cnc(Nc3ccc(N4CCNCC4)cn3)nc2n(C2CCCC2)c1=O [palbociclib] (first compound 0.4 µM, partner dose 0.04 µM)",77.3%,111%,42.8%,126%,78.8%,46%,89.4%,129%,160%,71.8%
"COc1ccc(C2=N[C@@H](c3ccc(Cl)cc3)[C@@H](c3ccc(Cl)cc3)N2C(=O)N2CCNC(=O)C2)c(OC(C)C)c1 [Nutlin-3] + C[C@]1(O)C[C@@H](c2nc(-c3ccc4ccc(-c5ccccc5)nc4c3)c3c(N)nccn32)C1 [OSI906] (first compound 0.1 µM, partner dose 0.4 µM)",159%,43.5%,61.1%,128%,57.2%,187%,21.1%,125%,127%,70.2%
"NC(=O)c1ccc(N(C(N)=O)c2c(F)cccc2F)nc1-c1ccc(F)cc1F + Clc1ccc(Nc2nnc(Cc3ccncc3)c3ccccc23)cc1 [vatalanib] (first compound 0.4 µM, partner dose 2 µM)",26.7%,64%,102%,97.9%,44.8%,46.3%,65.6%,98.5%,99.9%,81.8%
"C[C@]1(O)C[C@@H](c2nc(-c3ccc4ccc(-c5ccccc5)nc4c3)c3c(N)nccn32)C1 + OCc1c[nH]c2ccccc12 [Indole-3-carbinol] (first compound 0.4 µM, partner dose 0.8 µM)",29.6%,43.9%,208%,105%,227%,61.6%,59.8%,108%,272%,280%
"NC(=O)c1ccc(N(C(N)=O)c2c(F)cccc2F)nc1-c1ccc(F)cc1F + CN1CCN(c2ccc3nc(-c4c(N)c5c(F)cccc5[nH]c4=O)[nH]c3c2)CC1 [Dovitinib] (first compound 0.4 µM, partner dose 0.1 µM)",65.2%,60.2%,360%,100%,161%,83.5%,353%,35%,132%,143%
"CCN(CC)CCNC(=O)c1c(C)[nH]c(/C=C2\C(=O)Nc3ccc(F)cc32)c1C [sunitinib] + OCc1c[nH]c2ccccc12 [Indole-3-carbinol] (first compound 0.4 µM, partner dose 0.8 µM)",145%,77%,106%,105%,90%,86.6%,158%,97.1%,209%,169%
"Cn1cnc2c(F)c(Nc3ccc(Br)cc3Cl)c(C(=O)NOCCO)cc21 [selumetinib] + CCCS(=O)(=O)Nc1ccc(F)c(C(=O)c2c[nH]c3ncc(Cl)cc23)c1F [PLX4720] (first compound 0.015 µM, partner dose 0.08 µM)",149%,101%,248%,45.8%,121%,92.1%,64%,148%,47.1%,180%
"C[C@@H](N)c1ccc(C(=O)Nc2ccnc3[nH]ccc23)cc1 + C[C@]1(O)C[C@@H](c2nc(-c3ccc4ccc(-c5ccccc5)nc4c3)c3c(N)nccn32)C1 [OSI906] (first compound 0.4 µM, partner dose 0.4 µM)",120%,217%,121%,101%,126%,132%,61%,138%,86.9%,139%

# Single records, as listed above. Order of values: cleaved PARP positive nuclei fraction [1]	cleaved PARP positive nuclei fraction [2]	cleaved PARP positive nuclei fraction [3]	cleaved PARP positive nuclei fraction [4]	cleaved PARP positive nuclei fraction [5]	cleaved PARP positive nuclei fraction [6]	cleaved PARP positive nuclei fraction [7]	cleaved PARP positive nuclei fraction [8]	cleaved PARP positive nuclei fraction [9]	cleaved PARP positive nuclei fraction [10]
# CC(=O)O[C@@]12CO[C@@H]1C[C@H](O)[C@@]1(C)C(=O)[C@H](O)C3=C(C)[C@@H](OC(=O)[C@H](O)[C@@H](NC(=O)OC(C)(C)C)c4ccccc4)C[C@@](O)([C@@H](OC(=O)c4ccccc4)[C@H]21)C3(C)C [Docetaxel] + CN(c1ncccc1CNc1nc(Nc2ccc3c(c2)CC(=O)N3)ncc1C(F)(F)F)S(C)(=O)=O [PF562271] (first compound 0.0001 µM, partner dose 0.08 µM) as listed: 84.1%	549%	530%	412%	1020%	198%	108%	72.8%	185%	50.6%
# NC(=O)c1ccc(N(C(N)=O)c2c(F)cccc2F)nc1-c1ccc(F)cc1F + Clc1ccc(Nc2nnc(Cc3ccncc3)c3ccccc23)cc1 [vatalanib] (first compound 0.4 µM, partner dose 2 µM) as listed: 26.7%	64%	102%	97.9%	44.8%	46.3%	65.6%	98.5%	99.9%	81.8%
